Test results published in the supplement of paper PMC10849652.
The list shows a part of the results.

The chains behind the UniProt entries cited, without tags or fusion partners. Where a name states a change or a piece, a line headed by the entry shows the natural chain unless it says otherwise.
UniProt P46379: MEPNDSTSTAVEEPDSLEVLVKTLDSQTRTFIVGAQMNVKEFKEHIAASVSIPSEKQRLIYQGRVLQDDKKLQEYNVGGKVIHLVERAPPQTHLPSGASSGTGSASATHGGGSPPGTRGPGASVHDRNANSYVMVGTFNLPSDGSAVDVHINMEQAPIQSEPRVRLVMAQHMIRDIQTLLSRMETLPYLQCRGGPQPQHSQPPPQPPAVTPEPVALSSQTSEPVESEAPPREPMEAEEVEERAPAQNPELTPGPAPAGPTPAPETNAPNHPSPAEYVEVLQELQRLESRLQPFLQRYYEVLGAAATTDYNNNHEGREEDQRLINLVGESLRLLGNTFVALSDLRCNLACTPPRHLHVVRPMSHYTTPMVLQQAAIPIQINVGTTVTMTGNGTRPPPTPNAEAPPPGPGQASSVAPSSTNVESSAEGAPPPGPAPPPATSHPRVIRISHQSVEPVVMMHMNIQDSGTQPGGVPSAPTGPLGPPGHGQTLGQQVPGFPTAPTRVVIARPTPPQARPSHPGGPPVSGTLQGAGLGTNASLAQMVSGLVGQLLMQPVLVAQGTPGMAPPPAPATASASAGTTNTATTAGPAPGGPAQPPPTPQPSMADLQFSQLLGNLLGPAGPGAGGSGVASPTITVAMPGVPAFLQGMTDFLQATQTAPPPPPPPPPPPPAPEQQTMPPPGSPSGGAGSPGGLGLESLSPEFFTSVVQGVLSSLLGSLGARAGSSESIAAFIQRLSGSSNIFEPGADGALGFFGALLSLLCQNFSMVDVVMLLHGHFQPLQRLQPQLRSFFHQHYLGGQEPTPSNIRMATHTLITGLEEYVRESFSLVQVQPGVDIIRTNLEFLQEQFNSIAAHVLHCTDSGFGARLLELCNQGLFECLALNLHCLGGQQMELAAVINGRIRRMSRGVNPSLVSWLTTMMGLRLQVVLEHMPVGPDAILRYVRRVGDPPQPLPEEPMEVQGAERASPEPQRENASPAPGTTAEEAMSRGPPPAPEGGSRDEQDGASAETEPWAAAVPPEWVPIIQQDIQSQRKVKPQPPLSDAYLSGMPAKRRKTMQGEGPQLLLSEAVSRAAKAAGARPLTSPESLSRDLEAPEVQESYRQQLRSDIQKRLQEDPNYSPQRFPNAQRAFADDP
UniProt Q9H3K6: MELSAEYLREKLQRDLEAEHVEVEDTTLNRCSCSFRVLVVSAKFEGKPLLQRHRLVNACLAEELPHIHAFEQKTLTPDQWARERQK
UniProt Q99700, whole entry, looked up: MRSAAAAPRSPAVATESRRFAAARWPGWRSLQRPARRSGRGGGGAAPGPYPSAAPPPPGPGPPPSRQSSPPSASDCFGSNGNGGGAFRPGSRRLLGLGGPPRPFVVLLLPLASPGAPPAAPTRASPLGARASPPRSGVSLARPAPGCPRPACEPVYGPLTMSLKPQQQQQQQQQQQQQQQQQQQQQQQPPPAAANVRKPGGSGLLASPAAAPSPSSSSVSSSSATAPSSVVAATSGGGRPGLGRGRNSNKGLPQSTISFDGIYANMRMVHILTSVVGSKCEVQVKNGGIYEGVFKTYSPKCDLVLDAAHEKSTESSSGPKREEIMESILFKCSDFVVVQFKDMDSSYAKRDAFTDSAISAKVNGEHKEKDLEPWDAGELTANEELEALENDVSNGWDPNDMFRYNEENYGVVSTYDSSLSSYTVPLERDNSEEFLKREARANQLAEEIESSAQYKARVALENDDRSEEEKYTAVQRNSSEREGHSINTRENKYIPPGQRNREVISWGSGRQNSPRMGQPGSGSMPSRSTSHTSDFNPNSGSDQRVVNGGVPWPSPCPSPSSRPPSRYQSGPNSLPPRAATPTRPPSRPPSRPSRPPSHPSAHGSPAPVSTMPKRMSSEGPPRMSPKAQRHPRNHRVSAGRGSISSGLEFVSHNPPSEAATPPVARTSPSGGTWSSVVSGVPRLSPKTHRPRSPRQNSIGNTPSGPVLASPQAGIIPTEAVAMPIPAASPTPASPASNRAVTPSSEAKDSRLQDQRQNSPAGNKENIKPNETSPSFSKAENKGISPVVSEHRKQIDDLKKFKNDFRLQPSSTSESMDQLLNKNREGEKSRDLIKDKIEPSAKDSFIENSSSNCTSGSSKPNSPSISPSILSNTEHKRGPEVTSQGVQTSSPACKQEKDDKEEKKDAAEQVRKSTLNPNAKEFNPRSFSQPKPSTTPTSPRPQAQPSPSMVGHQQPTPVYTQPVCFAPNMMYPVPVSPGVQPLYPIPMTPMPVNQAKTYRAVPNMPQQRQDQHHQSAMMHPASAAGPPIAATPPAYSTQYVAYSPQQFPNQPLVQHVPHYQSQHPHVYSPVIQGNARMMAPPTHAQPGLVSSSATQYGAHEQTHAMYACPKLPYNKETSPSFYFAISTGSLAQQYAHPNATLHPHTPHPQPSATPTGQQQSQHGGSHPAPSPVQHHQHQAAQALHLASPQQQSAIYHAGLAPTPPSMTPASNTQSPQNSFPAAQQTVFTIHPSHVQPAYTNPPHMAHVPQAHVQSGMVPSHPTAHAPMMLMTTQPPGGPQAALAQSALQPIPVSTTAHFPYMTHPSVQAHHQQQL
UniProt Q99933: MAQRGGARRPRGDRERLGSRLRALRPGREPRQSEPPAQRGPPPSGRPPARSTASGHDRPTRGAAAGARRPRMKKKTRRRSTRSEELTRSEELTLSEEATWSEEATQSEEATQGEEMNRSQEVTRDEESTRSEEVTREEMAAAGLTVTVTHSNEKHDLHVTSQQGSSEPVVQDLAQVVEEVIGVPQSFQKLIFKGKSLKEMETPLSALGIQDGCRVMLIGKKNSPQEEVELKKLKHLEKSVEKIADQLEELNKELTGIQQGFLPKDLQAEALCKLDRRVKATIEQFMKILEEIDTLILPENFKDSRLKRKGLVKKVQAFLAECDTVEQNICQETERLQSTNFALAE
UniProt O14867: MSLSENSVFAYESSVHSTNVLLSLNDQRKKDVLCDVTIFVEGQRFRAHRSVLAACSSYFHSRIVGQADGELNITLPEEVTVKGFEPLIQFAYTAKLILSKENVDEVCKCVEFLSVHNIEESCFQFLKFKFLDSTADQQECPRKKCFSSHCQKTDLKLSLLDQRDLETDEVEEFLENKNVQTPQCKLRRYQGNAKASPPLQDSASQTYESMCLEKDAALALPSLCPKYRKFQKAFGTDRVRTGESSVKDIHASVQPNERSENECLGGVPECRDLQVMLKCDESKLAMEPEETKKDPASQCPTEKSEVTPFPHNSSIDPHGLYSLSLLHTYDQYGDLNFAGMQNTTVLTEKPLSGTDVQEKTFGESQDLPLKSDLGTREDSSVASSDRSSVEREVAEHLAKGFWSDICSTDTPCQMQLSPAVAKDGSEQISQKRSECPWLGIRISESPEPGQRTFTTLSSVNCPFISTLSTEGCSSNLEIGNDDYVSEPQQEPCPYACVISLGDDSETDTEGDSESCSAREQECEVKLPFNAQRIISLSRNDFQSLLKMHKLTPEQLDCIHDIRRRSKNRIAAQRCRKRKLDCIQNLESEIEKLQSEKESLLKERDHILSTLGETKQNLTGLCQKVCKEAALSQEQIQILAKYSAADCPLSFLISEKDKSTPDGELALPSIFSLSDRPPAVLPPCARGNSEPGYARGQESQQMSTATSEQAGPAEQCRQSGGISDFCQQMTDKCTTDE
UniProt Q9Y276: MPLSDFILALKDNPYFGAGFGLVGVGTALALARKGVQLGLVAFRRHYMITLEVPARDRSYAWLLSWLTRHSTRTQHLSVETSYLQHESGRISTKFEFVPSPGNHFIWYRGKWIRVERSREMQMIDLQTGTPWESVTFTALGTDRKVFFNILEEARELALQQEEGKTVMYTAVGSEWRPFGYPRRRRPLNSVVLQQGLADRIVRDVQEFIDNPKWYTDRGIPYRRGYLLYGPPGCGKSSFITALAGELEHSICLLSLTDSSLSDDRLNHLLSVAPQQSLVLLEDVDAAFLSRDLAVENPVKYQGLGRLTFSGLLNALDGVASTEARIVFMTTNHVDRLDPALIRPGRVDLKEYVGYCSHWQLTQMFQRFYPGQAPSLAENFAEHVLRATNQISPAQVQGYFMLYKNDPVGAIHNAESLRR
UniProt Q07812, whole entry, looked up: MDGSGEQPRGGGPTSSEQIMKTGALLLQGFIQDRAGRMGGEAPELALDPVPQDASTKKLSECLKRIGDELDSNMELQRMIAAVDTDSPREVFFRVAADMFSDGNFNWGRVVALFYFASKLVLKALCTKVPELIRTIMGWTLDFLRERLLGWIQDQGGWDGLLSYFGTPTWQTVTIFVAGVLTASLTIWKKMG
UniProt P46736, whole entry, looked up: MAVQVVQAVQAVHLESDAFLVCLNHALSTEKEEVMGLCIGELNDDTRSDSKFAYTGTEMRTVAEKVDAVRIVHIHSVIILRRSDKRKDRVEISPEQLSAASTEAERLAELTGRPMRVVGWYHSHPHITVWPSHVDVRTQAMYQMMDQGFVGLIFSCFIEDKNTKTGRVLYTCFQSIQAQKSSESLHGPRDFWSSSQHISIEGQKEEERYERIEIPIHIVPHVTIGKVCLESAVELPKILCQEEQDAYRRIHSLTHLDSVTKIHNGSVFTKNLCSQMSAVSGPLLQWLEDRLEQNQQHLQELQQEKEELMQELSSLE
UniProt Q9H6U6: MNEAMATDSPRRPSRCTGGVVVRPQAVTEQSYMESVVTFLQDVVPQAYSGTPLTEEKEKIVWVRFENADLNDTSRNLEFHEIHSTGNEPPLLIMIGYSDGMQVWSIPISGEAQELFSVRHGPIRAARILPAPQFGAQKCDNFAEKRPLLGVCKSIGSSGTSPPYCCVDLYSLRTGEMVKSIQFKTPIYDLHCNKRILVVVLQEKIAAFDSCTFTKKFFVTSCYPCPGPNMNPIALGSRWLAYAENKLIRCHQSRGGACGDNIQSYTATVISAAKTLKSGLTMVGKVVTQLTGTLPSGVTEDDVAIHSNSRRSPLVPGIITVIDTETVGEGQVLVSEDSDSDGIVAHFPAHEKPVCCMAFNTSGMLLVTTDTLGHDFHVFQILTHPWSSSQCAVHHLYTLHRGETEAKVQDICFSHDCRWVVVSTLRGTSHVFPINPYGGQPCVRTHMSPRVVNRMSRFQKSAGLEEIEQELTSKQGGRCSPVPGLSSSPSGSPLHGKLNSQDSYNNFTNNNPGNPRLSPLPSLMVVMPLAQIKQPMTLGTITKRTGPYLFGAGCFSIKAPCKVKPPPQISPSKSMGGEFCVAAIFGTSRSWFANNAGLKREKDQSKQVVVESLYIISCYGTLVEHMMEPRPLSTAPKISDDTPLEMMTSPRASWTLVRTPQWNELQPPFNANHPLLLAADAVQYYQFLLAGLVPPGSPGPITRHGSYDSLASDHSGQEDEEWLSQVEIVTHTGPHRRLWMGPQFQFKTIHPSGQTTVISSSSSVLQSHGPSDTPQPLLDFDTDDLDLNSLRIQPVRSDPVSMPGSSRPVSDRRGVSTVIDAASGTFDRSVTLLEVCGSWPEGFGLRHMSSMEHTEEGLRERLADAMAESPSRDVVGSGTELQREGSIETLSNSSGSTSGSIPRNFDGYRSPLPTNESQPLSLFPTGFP
UniProt Q9NW68: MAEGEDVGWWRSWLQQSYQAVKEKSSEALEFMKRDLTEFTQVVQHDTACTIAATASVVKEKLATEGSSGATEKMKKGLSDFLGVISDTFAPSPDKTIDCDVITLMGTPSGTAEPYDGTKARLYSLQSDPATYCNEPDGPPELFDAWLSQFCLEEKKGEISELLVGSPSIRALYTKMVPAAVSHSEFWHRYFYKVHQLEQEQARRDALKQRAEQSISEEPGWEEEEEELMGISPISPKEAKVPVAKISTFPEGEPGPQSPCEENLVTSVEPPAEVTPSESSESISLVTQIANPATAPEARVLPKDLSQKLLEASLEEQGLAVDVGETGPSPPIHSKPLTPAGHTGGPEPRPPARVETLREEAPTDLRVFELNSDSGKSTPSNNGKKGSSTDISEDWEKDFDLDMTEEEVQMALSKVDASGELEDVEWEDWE
UniProt P51572: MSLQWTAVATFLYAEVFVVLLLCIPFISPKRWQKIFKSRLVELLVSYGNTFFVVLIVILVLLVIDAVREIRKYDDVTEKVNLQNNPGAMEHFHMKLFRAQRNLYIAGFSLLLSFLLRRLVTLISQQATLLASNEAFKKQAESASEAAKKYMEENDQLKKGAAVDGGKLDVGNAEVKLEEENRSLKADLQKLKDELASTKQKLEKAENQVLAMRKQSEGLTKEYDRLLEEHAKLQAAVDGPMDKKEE
UniProt Q9NXR7, whole entry, looked up: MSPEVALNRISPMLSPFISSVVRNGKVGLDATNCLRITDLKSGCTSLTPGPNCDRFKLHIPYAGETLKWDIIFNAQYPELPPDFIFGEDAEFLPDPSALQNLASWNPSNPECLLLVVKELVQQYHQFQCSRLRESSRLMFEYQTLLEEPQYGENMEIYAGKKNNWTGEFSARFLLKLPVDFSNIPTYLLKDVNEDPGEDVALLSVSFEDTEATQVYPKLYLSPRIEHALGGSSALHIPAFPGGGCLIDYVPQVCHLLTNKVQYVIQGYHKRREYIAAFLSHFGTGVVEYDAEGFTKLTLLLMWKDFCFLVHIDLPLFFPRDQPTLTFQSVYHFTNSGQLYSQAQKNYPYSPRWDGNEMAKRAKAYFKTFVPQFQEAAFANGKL

These targets were tested with c1cn2cc(-c3ccc4cn[nH]c4c3)nc(Nc3ccc(N4CCOCC4)cc3)c2n1 [entospletinib] (assay: log2 fold change, soluble protein after heating vs DMSO (PISA); higher = thermal stabilisation; K562 cells, 10 uM, 30 min; active = over 0.2 and 3.5 SD of the protein, either way, in both replicates (recomputed)).
Method in brief: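 K562 cells at 2×10^6 cells/mL were treated for 30 min with 10 μM compound, and aliquots were heated for 3 min over 48°C-58°C before pooling. Extraction used PBS with 0.5% NP-40 at 4°C, and soluble protein was the supernatant after 21,000xg for 90 min, measured by TMTpro 16plex LC-MS/MS with channel sums equalised. Thermal stability values, relative to control samples and from duplicates, are log2 fold changes.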

log2 fold change, inactive:
BPGM (UniProt P07738) -0.053
BAG6 isoform 3 (UniProt P46379) 0.01
BOLA2 (UniProt Q9H3K6) 0
BLOC1S6 (UniProt Q9UL45) -0.016
BAG2 (UniProt O95816) 0.169
BNIP2 (UniProt H7C096) -0.069
BCR (UniProt P11274) 0.341
ATXN2 (UniProt Q99700) 0.04
BCL2L2 isoform 2 (UniProt Q92843) -0.077
BAHCC1 (UniProt Q9P281) 0.008
BCAT1 (UniProt P54687) -0.012
B4GALT3 (UniProt O60512) 0.062
BAG1 (UniProt Q99933) -0.012
BAG5 isoform 2 (UniProt Q9UL15) 0.014
BACH1 (UniProt O14867) 0.041
BPIFA1 (UniProt Q9NP55) -0.121
BCAR1 isoform 6 (UniProt P56945) -0.05
BIRC6 (UniProt Q9NR09) -0.147
BCS1L (UniProt Q9Y276) -0.002
BCAT2 (UniProt O15382) 0.014
BLVRA (UniProt P53004) -0.01
BORCS6 (UniProt Q96GS4) 0.047
BORCS8 (UniProt Q96FH0) 0.242
BCKDK (UniProt O14874) 0
BAX isoform 2 (UniProt Q07812) 0.033
BRCC3 (UniProt P46736) -0.036
BCAS3 isoform 8 (UniProt Q9H6U6) 0.127
BSDC1 (UniProt Q9NW68) 0.025
BLOC1S1 (UniProt P78537) 0.012
BCAP31 isoform 2 (UniProt P51572) -0.007
BABAM2 (UniProt Q9NXR7) 0.034
BPIFB1 (UniProt Q8TDL5) -0.11
BAG3 (UniProt O95817) 0.042

A portion from the list above, as a working copy:
log2 fold change, inactive:
B4GALT3 (UniProt O60512) 0.062
BAG1 (UniProt Q99933) -0.012
